Measurements from patent publication US20130096104A1, “IMIDAZOPYRIDINE COMPOUNDS, COMPOSITIONS AND METHODS OF USE” (GENENTECH, INC., priority 2010, published 2013).
Some results were stated once for a whole list of compounds, not compound by compound.

Molecular target: T1, TYK2 kinase domain (Homo sapiens, UniProt P29597)
T1 construct: The activity of the isolated JAK1, JAK2 or TYK2 kinase domain was measured
T1 sequence (P29597 897-1176 limits assumed): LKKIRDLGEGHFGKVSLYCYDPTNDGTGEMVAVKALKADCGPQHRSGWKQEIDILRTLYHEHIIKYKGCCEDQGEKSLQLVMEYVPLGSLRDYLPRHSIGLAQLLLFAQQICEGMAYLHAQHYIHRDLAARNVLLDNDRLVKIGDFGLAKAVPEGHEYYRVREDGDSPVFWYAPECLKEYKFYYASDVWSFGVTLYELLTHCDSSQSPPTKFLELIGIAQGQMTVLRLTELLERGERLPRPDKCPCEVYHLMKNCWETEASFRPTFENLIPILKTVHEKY
Assay: TYK2 inhibition assay (Example A, Caliper LabChip peptide phosphorylation)
Assay type: biochemical
Settings: tested in the above assays; less than about

Row | Compound | IC50 [µM]
1 | N#Cc1cnc(Nc2ncnc3nc(-c4c(F)cccc4Cl)[nH]c23)cn1 [Example 337, 5-(8-(2-chloro-6-fluorophenyl)-7H-purin-6-ylamino)pyrazine-2-carbonitrile] | < 5
2 | Cn1c(-c2c(Cl)cccc2Cl)nc2c(Nc3cccnc3)ncnc21 [Example 338, 8-(2,6-dichlorophenyl)-9-methyl-N-(pyridin-3-yl)-9H-purin-6-amine] | < 5
3 | Cn1c(-c2c(F)cccc2Cl)nc2c(Nc3ccccc3)ncnc21 [Example 339, 8-(2-chloro-6-fluorophenyl)-9-methyl-N-phenyl-9H-purin-6-amine] | < 5
4 | Cn1c(-c2c(F)cccc2Cl)nc2c(Nc3ccncc3)ncnc21 [Example 340, 8-(2-chloro-6-fluorophenyl)-9-methyl-N-(pyridin-4-yl)-9H-purin-6-amine] | < 5
5 | N#Cc1cc(Cl)c(-c2nc3ncnc(Nc4cc(N)ncn4)c3[nH]2)c(Cl)c1 [Example 341, 4-(6-(6-aminopyrimidin-4-ylamino)-7H-purin-8-yl)-3,5-dichlorobenzonitrile] | < 5
6 | CCc1cc(Nc2ncnc3nc(-c4c(Cl)cc(C#N)cc4Cl)[nH]c23)ncn1 [Example 342, 3,5-dichloro-4-(6-(6-ethylpyrimidin-4-ylamino)-7H-purin-8-yl)benzonitrile] | < 5
7 | N#Cc1cc(Cl)c(-c2nc3ncnc(Nc4cc(C5CC5)ncn4)c3[nH]2)c(Cl)c1 [Example 343, 3,5-dichloro-4-(6-(6-cyclopropyl-pyrimidin-4-ylamino)-7H-purin-8-yl)benzonitrile] | < 5
8 | CCc1cnc(Nc2ncnc3nc(-c4c(Cl)cc(C#N)cc4Cl)[nH]c23)cn1 [Example 344, 3,5-dichloro-4-(6-(5-ethylpyrazin-2-ylamino)-7H-purin-8-yl)benzonitrile] | < 5
9 | CCc1ccc(Nc2ncnc3nc(-c4c(Cl)cc(C#N)cc4Cl)[nH]c23)nc1 [Example 345, 3,5-dichloro-4-(6-(5-ethylpyridin-2-ylamino)-7H-purin-8-yl)benzonitrile] | < 5
10 | Clc1cccc(Cl)c1-c1nc2ncnc(Nc3cc(CN4CCOCC4)ncn3)c2[nH]1 [Example 346, 8-(2,6-dichlorophenyl)-N-(6-(morpholinometh-yl)pyrimidin-4-yl)-7H-purin-6-amine] | < 5
11 | C[C@@H](O)c1cc(Nc2ncnc3nc(-c4c(Cl)cccc4Cl)[nH]c23)ncn1 [Example 347, (R)-1-(6-(8-(2,6-dichlorophenyl)-7H-purin-6-ylamino)pyrimidin-4-yl)ethanol] | < 5
12 | C[C@H](O)c1cc(Nc2ncnc3nc(-c4c(Cl)cccc4Cl)[nH]c23)ncn1 [Example 348, (S)-1-(6-(8-(2,6-dichlorophenyl)-7H-purin-6-ylamino)pyrimidin-4-yl)ethanol] | < 5
13 | N#Cc1cc(Cl)c(-c2nc3ncnc(Nc4cnc(C#N)cn4)c3[nH]2)c(Cl)c1 [Example 349, 5-(8-(2,6-dichloro-4-cyanophenyl)-7H-purin-6-ylamino)pyrazine-2-carbonitrile] | < 5
14 | N#Cc1cnc(Nc2ncnc3nc(-c4c(Cl)cccc4Cl)[nH]c23)cn1 [Example 350, 5-(8-(2,6-dichlorophenyl)-7H-purin-6-ylamino)pyrazine-2-carbonitrile] | < 5
15 | CNCc1cnc(Nc2ncnc3nc(-c4c(Cl)cccc4Cl)[nH]c23)cn1 [Example 351, 8-(2,6-dichlorophenyl)-N-(5-((methylamino)-methyl)pyrazin-2-yl)-7H-purin-6-amine] | < 5
16 | CC(O)c1cc(Nc2ncnc3nc(-c4c(Cl)cc(C#N)cc4Cl)[nH]c23)ncn1 (stereo not shown) [Example 352, 3,5-dichloro-4-(6-(6-(1-hydroxyethyl)-pyrimidin-4-ylamino)-7H-purin-8-yl)benzonitrile] | < 5

Row | Compound | IC50 [µM]
17 | Cc1cc(Nc2ncnc3nc(-c4c(Cl)cc(Cl)cc4Cl)[nH]c23)ncn1 [Example 353, N-(6-methylpyrimidin-4-yl)-8-(2,4,6-trichlorophenyl)-7H-purin-6-amine] | < 5
18 | Nc1cc(Nc2ncnc3nc(-c4c(Cl)cc(Cl)cc4Cl)[nH]c23)ncn1 [Example 354, N4-(8-(2,4,6-trichlorophenyl)-7H-purin-6-yl)pyrimidine-4,6-diamine] | < 5
19 | Cc1cc(Cl)c(-c2nc3ncnc(Nc4cc(N)ncn4)c3[nH]2)c(Cl)c1 [Example 355, N4-(8-(2,6-dichloro-4-methylphenyl)-7H-purin-6-yl)pyrimidine-4,6-diaminel] | < 5
20 | Cc1cc(Cl)c(-c2nc3ncnc(Nc4cc(C)ncn4)c3[nH]2)c(Cl)c1 [Example 356, 8-(2,6-dichloro-4-methylphenyl)-N-(6-methylpyrimidin-4-yl)-7H-purin-6-amine] | < 5
21 | Cc1cc(Nc2ncnc3nc(-c4c(Cl)ccc(F)c4Cl)[nH]c23)ncn1 [Example 358, 8-(2,6-dichloro-3-fluorophenyl)-N-(6-methylpyrimidin-4-yl)-7H-purin-6-amine] | < 5
22 | Nc1cc(Nc2ncnc3nc(-c4c(Cl)ccc(F)c4Cl)[nH]c23)ncn1 [Example 359, N4-(8-(2,6-dichloro-3-fluorophenyl)-7H-purin-6-yl)pyrimidine-4,6-diamine] | < 5
23 | Cc1ccc(F)c(-c2nc3ncnc(Nc4cc(N)ncn4)c3[nH]2)c1Cl [Example 360, N4-(8-(2-chloro-6-fluoro-3-methylphenyl)-7H-purin-6-yl)pyrimidine-4,6-diamine] | < 5
24 | Cc1cc(Nc2ncnc3nc(-c4c(F)ccc(C)c4Cl)[nH]c23)ncn1 [Example 361, 8-(2-chloro-6-fluoro-3-methylphenyl)-N-(6-methylpyrimidin-4-yl)-7H-purin-6-amine] | < 5
25 | Nc1cc(Nc2ncnc3nc(-c4c(F)ccc(F)c4Cl)[nH]c23)ncn1 [Example 362, N4-(8-(2-chloro-3,6-difluorophenyl)-7H-purin-6-yl)pyrimidine-4,6-diamine] | < 5
26 | Cc1cc(Nc2ncnc3nc(-c4c(F)ccc(F)c4Cl)[nH]c23)ncn1 [Example 363, 8-(2-chloro-3,6-difluorophenyl)-N-(6-methylpyrimidin-4-yl)-7H-purin-6-amine] | < 5
27 | Nc1cc(Nc2ncnc3nc(-c4c(Cl)ccc(Cl)c4Cl)[nH]c23)ncn1 [Example 364, N4-(8-(2,3,6-trichlorophenyl)-7H-purin-6-yl)pyrimidine-4,6-diamine] | < 5
28 | Fc1cccc(Cl)c1-c1nc2ccnc(Nc3cc(N4CCN(C5COC5)CC4)ncn3)c2[nH]1 [Example 365, 2-(2-chloro-6-fluorophenyl)-N-(6-(4-(oxetan-3-yl)piperazin-1-yl)pyrimidin-4-yl)-3H-imidazo[4,5-c]pyridin-4-amine] | < 5
29 | CC(C)(O)c1ccnc(Nc2nccc3nc(-c4c(Cl)cccc4Cl)[nH]c23)c1 [Example 366, 2-(2-(2-(2,6-dichlorophenyl)-3H-imidazo[4,5-c]pyridin-4-ylamino)pyridin-4-yl)propan-2-ol] | < 5
30 | Nc1cc(Nc2nccc3nc(-c4c(Cl)cccc4Cl)[nH]c23)ccn1 [Example 367, N4-(2-(2,6-dichlorophenyl)-3H-imidazo[4,5-c]pyridin-4-yl)pyridine-2,4-diamine] | < 5
31 | Nc1nc(Nc2nccc3nc(-c4c(Cl)cccc4Cl)[nH]c23)cc(N2CCOCC2)n1 [Example 368, N4-(2-(2,6-dichlorophenyl)-3H-imidazo[4,5-c]pyridin-4-yl)-6-morpholino-pyrimidine-2,4-diamine] | < 5
